Assay results: patent publication US20230235004A1
Numbering of substitutions follows the chain as printed. Results are given in words; binding and its absence hold for the method and conditions named. A result given as binding can be weak or reduced; the word gives no strength.

Target: cyno MAdCAM protein (cyno)
Assay: Octet

B1: MAdCAM Antibody Table 2 clone 20 (antibody, V domains shown)
VH: EVQLLESGGGLVQPGGSLRLSCAASGFTFSDSAMHWVRQAPGKGLEWVSAISGSGSTIYYADSVKGRFTISRDNSKNTLYLQMNSLRAEDTAVYYCVSDIAVAGHWYFDLWGRGTLVTVSS
VL: DIQMTQSPSSLSASVGDRVTITCRASQSISTFLNWYQQKPGKAPKLLIYAASRLEGGVPSRFSGSGSGTDFTLTISSLQPEDFATYYCQQANSFPLTFGPGTKVDIK
  binding: binds

B2: MAdCAM Antibody Table 2 clone 23 (antibody, V domains shown)
VH: EVQLLESGGGLVQPGGSLRLSCAASGFTFDDYAMHWVRQAPGKGLEWVSYIDTSSSHLYYADSVKGRFTISRDNSKNTLYLQMNSLRAEDTAVYYCARDEAAAGYYGMDVWGQGTTVTVSS
VL: DIQMTQSPSSLSASVGDRVTITCQAGQDISNYLNWYQQKPGKAPKLLIYDASNLETGVPSRFSGSGSGTDFTLTISSLQPEDFATYYCQQTYSTPITFGQGTKLEIK
  binding: binds

B3: MAdCAM Antibody Table 2 clone 30 (antibody, V domains shown)
VH: EVQLLESGGGLVQPGGSLRLSCAASGFTFSSYAMHWVRQAPGKGLEWVSGISGSGGSAYYADSVKGRFTISRDNSKNTLYLQMNSLRAEDTAVYYCATSQAPVDYYYYGMDVWGQGTTVTVSS
VL: DIQMTQSPSSLSASVGDRVTITCRASQSISSWLAWYQQKPGKAPKLLIYAASNLQRGVPSRFSGSGSGTDFTLTISSLQPEDFATYYCQQSYSIPITFGQGTKVEIK
  binding: binds

B4: MAdCAM Antibody Table 2 clone 55 (antibody, V domains shown)
VH: EVQLLESGGGLVQPGGSLRLSCAASGFTFDDFAMHWVRQAPGKGLEWVSGISGNGDSRYYADSVKGRFTISRDNSKNTLYLQMNSLRAEDTAVYYCARDASYGGNYGMDVWGQGTTVTVSS
VL: B1 VL with R24Q, S28D, S30R, T31N, F32Y, A50K, R53T, G56S
  binding: binds

B5: MAdCAM Antibody Table 2 clone 60 (antibody, V domains shown)
VH: EVQLLESGGGLVQPGGSLRLSCAASGFTFSDHGMHWVRQAPGKGLEWVSVIYGGESTYYADSVKGRFTISRDNSKNTLYLQMNSLRAEDTAVYYCARDPAVAGGGIFDYWGQGTLVTVSS
VL: B2 VL with Q24R, G26S, D28G, N34A, T91S, P95C, I96Y
  binding: binds

B6: MAdCAM Antibody Table 2 clone 63 (antibody, V domains shown)
VH: EVQLLESGGGLVQPGGSLRLSCAASGFTFNNYGMNWVRQAPGKGLEWVSRINSDGSSTSYADSVKGRFTISRDNSKNTLYLQMNSLRAEDTAVYYCARGAYYYYYMDVWGQGTLVTVSS
VL: EIVMTQSPATLSVSPGERATLSCRASQSVSGSYLAWYQQKPGQAPRLLIYATSSRASGIPARFSGSGSGTEFTLTISSLQSEDFAVYYCQQYYSGLTFGQGTKVEIK
  binding: binds

B7: MAdCAM Antibody Table 2 clone 65 (antibody, V domains shown)
VH: QVQLVQSGAEVKKPGASVKVSCKASGYTFTSYDINWVRQAPGQGLEWMGWMNPNSGNTGYAQKFQGRVTMTRDTSTSTVYMELSSLRSEDTAVYYCAKDSDYSNLLWDYWGQGTLVTVSS
VL: DIQMTQSPSSLSASVGDRVTITCRASQDITNDLGWYQQKPGKAPKLLIYQASSLESGVPSRFSGSGSGTDFTLTISSLQPEDFATYYCQQSYTIPLTFGQGTKVEIK
  binding: binds

B8: MAdCAM Antibody Table 2 clone 74 (antibody, V domains shown)
VH: QVQLVQSGAEVKKPGASVKVSCKASGYTFTGYYMHWVRQAPGQGLEWMGIINPSGGNTKYAQKFQGRVTMTRDTSTSTVYMELSSLRSEDTAVYYCTTADYYYYMDVWGKGTTVTVSS
VL: DIQMTQSPSSLSASVGDRVTITCRASQGISNYLAWYQQKPGKAPKLLIYAASSLQSGVPSRFSGSGSGTDFTLTISSLQPEDFATYYCQQYYSNADFGQGTKVEIK
  binding: binds

B9: MAdCAM Antibody Table 2 clone 76 (antibody, V domains shown)
VH: EVQLLESGGGLVQPGGSLRLSCAASGFTFDDYTMHWVRQAPGKGLEWVSDISGSGGSTYYADSVKGRFTISRDNSKNTLYLQMNSLRAEDTAVYYCAKDVVVAGTPLHFDYWGQGTLVTVSS
VL: B2 VL with G26S, D50A, N53Y, E55Q, T56S, T91A, Y92H, S93N, T94Y, K103R
  binding: binds

B10: MAdCAM Antibody Table 2 clone 79 (antibody, V domains shown)
VH: EVQLLESGGGLVKPGGSLRLSCAASGFTFDDYAMHWVRQAPGKGLEWVASITSSSAFIDYAASVKGRFTISRDDSKNTLYLQMNSLKTEDTAVYYCARERVDWNSYFDLWGRGTLVTVSS
VL: EIVMTQSPATLSVSPGERATLSCRASQGISNSYLAWYQQKPGQAPRLLIYGASTRATGIPARFSGSGSGTEFTLTISSLQSEDFAVYYCQQYYTYPPTFGPGTKVDIK
  binding: binds

B11: MAdCAM Antibody Table 2 clone 82 (antibody, V domains shown)
VH: QVQLVQSGAEVKKPGASVKVSCKASGYTFTRHWIHWVRQAPGQGLEWMGWINVKTGGAGYAQKFQGRVTMTRDTSTSTVYMELSSLRSEDTAVYYCARESSGWYGTDVWGQGTTVTVSS
VL: B3 VL with V19A, S31N, W32Y, N53S, R56S, Y92N, I94F, I96L, Q100G
  binding: binds

B12: MAdCAM Antibody Table 2 clone 83 (antibody, V domains shown)
VH: EVQLLESGGGLVQPGGSLRLSCAASGFTFSSYWMHWVRQAPGKGLEWVAAISYDGKYKDYEDSVKGRFTISRDNSKNTLYLQMNSLRAEDTAVYYCARENKQWLASFDYWGQGTLVTVSS
VL: DIQMTQSPSSLSASVGDRVTITCQASQDISNFVNWYQQKPGKAPKLLIYAANLRSGVPSRFSGSGSGTDFTLTISSLQPEDFATYYCQQANSFPVTFGPGTKVDIK
  binding: binds

B13: MAdCAM Antibody Table 2 clone 84 (antibody, V domains shown)
VH: QVQLVQSGAEVKKPGASVKVSCKASGGTFSSSAISWVRQAPGQGLEWMGWISAYNGYTNYAQKFQGRVTMTRDTSTSTVYMELSSLRSEDTAVYYCASRVHSGGSYPDDYWGQGTLVTVSS
VL: DIQMTQSPSSLSASVGDRVTITCQASEHIYNYLNWYQQKPGKAPKLLIYAASSLQSGVPSRFSGSGSGTDFTLTISSLQPEDFATYYCQQTDSIPITFGQGTKVEIK
  binding: binds

B14: MAdCAM antibody Table 1 clone 1 (scFv)
scFv: EVQLLESGGGLVQPGGSLRLSCAASGFTFSSYGMHWVRQAPGKGLEWVAVISDDGSDKYYADSVKGRFTISRDNSKNTLYLQMNSLRAEDTAVYYCTTSKYYYYYGMDVWGQGTTVTVSSGGGGSGGGGSGGGGSGGGGSDIQMTQSPSSLSASVGDRVTITCQASQDISKSLNWYQQKPGKAPKLLIYAASSLQSGVPSRFSGSGSGTDFTLTISSLQPEDFATYYCQQGYSTPLTFGGGTKVEIK
  binding: binds

B15: MAdCAM antibody Table 1 clone 2 (scFv)
scFv: QVQLVQSGAEVKKPGASVKVSCKASGYPFIGYYLHWVRQAPGQGLEWMGIINPSGGSTSYAQKFQGRVTMTRDTSTSTVYMELSSLRSEDTAVYYCAREGRLSYGMDAWGQGTLVTVSSGGGGSGGGGSGGGGSGGGGSDIQMTQSPSSLSASVGDRVTITCRASQSISSYLAWYQQKPGKAPKLLIYGASTLESGVPSRFSGSGSGTDFTLTISSLQPEDFATYYCQQTWGPPFTFGQGTKLEIK
  binding: binds

B16: MAdCAM antibody Table 1 clone 4 (scFv)
scFv: QVQLVQSGAEVKKPGASVKVSCKASGGTFSSYAISWVRQAPGQGLEWMGSINPSGDTTSYAQKFQGRVTMTRDTSTSTVYMELSSLRSEDTAVYYCAKDKAQWLVGYFDYWGQGTLVTVSSGGGGSGGGGSGGGGSGGGGSDIQMTQSPSSLSASVGDRVTITCQASQDISNSLNWYQQKPGKAPKLLIYAASSLQSGVPSRFSGSGSGTDFTLTISSLQPEDFATYYCQQSYSSVITFGQGTKVEIK
  binding: binds

B17: MAdCAM antibody Table 1 clone 5 (scFv)
scFv: EVQLLESGGGLVQPGGSLRLSCAASGFTFSSYWMHWVRQAPGKGLEWVSSISPGGSNIDYADSVKGRFTISRDNSKNTLYLQMNSLRAEDTAVYYCAREVQLSHYDYWGQGTLVTVSSGGGGSGGGGSGGGGSGGGGSDIQMTQSPSSLSASVGDRVTITCRASQGISNSLAWYQQKPGKAPKLLIYGASSLQSGVPSRFSGSGSGTDFTLTISSLQPEDFATYYCQQANSFPFTFGQGTKVEIK
  binding: binds

B18: MAdCAM antibody Table 1 clone 6 (scFv)
scFv: EVQLLESGGGLVQPGGSLRLSCAASGFTFNNYAFHWVRQAPGKGLEWVSRINSYGTSTTYADSVKGRFTISRDNSKNTLYLQMNSLRAEDTAVYYCAREGPVAGYWYFDLWGQGTLVTVSSGGGGSGGGGSGGGGSGGGGSDIQMTQSPSSLSASVGDRVTITCRASQIIGTNLAWYQQKPGKAPKLLIYGASSLQSGVPSRFSGSGSGTDFTLTISSLQPEDFATYYCQQSYRLPFTFGQGTKVEIK
  binding: binds

B19: MAdCAM antibody Table 1 clone 7 (scFv)
scFv: QVQLVQSGAEVKKPGASVKVSCKASGYTFTGYHIHWVRQAPGQGLEWMGIINPSGGSTIYAQKFQGRVTMTRDTSTSTVYMELSSLRSEDTAVYYCAKDWSSWYLGPFDYWGQGTLVTVSSGGGGSGGGGSGGGGSGGGGSDIQMTQSPSSLSASVGDRVTITCRASQNISSSLNWYQQKPGKAPKLLIYAASSLQSGVPSRFSGSGSGTDFTLTISSLQPEDFATYYCQQSYTTPYTFGQGTKVEIK
  binding: binds

B20: MAdCAM antibody Table 1 clone 9 (scFv)
scFv: EVQLLESGGGLVQPGGSLRLSCAASGFTFSDYYMNWVRQAPGKGLEWVSVIGESGGSTYYADSVKGRFTISRDNSKNTLYLQMNSLRAEDTAVYYCAADPVSRWPKHGGGDYWGQGTLVTVSSGGGGSGGGGSGGGGSGGGGSDIQMTQSPSSLSASVGDRVTITCRASQGISSSLAWYQQKPGKAPKLLIYAASTLQSGVPSRFSGSGSGTDFTLTISSLQPEDFATYYCQQSYSTPWTFGQGTKVEIK
  binding: binds

B21: MAdCAM Antibody Table 2 clone 7 (antibody, V domains shown)
VH: EVQLLESGGGLVQPGGSLRLSCAASGFTFSDYQMSWVRQAPGKGLEWVAIISHADGGFKDYADSVKGRFTISRDNSKNTLYLQMNSLRAEDTAVYYCAKPYSSGWSAVYYFDYWGQGTLVTVSS
VL: B7 VL with Q27R, D28G, Q50A, S53T, E55Q, S91A, T93S, I94F, L96W
  binding: no binding
